The test system of data set [1] is cancer tissues in comparison to non-cancerous tissues and organs. Description: Presentation profile / over-presentation by label-free LC-MS (XPRESIDENT), tumor versus normal tissues, other proliferative diseases. On the set-up: species or system human. The note with it: other proliferative diseases / organs (other than AML) that over- or exclusively present the peptide; Table 5.

Data set [2] has as its system primary AML samples. Kind of data set: HLA class II ligandome analysis (LC-MS/MS) of primary AML samples. Details: species or system human. The note with it: HLA class II ligandome, AML patients n=12.

“478 (HRSFVDLSGHNLANPHP; listed as Homo sapiens) [compound 478]”: the “Proliferative disease and location thereof” value in data set [1] is recorded as “brain, glioblastoma, parotid gland, pleomorphic; adenoma”. Also, the “Number of positive AMLs” value in data set [2] is 3.

Consider “479 (ALPEFDGKRFQNVAKEG; listed as Homo sapiens) [compound 479]”, for which the “Proliferative disease and location thereof” value in data set [1] is “liver, hepatocellular carcinoma, cancer, thyroid; gland, nodular hyperplasia”. In data set [2], the “Number of positive AMLs” value came out at 1.

As for “480 (DSNEFSVIADPRG; listed as Homo sapiens) [compound 480]”, the “Proliferative disease and location thereof” value in data set [1] was “liver, hepatocellular carcinoma, cancer, thyroid; gland, nodular hyperplasia”. Besides, the “Number of positive AMLs” value in data set [2] is given as 1.

On to “481 (DSNEFSVIADPRGN; listed as Homo sapiens) [compound 481]”, for which the “Proliferative disease and location thereof” value in data set [1] is “liver, hepatocellular carcinoma, cancer, thyroid; gland, nodular hyperplasia”. For the same substance, in data set [2], the “Number of positive AMLs” value worked out at 1.

For the substance “482 (DSNEFSVIADPRGNT; listed as Homo sapiens) [compound 482]”, in data set [1], the “Proliferative disease and location thereof” value is listed as “liver, hepatocellular carcinoma, cancer, thyroid; gland, nodular hyperplasia”. For the same substance, the “Number of positive AMLs” value in data set [2] was determined as 1.

Turning to “483 (DSNEFSVIADPRGNTL; listed as Homo sapiens) [compound 483]”, in data set [1], the “Proliferative disease and location thereof” value is “liver, hepatocellular carcinoma, cancer, thyroid; gland, nodular hyperplasia”. In addition, in data set [2], the “Number of positive AMLs” value is recorded as 1.

Consider “484 (DSNEFSVIADPRGNTLG; listed as Homo sapiens) [compound 484]”, for which, in data set [1], the “Proliferative disease and location thereof” value was “liver, hepatocellular carcinoma, cancer, thyroid; gland, nodular hyperplasia”. Moreover, the “Number of positive AMLs” value in data set [2] is on record as 1.

For the substance “485 (PEFDGKRFQNVAK; listed as Homo sapiens) [compound 485]”, the “Proliferative disease and location thereof” value in data set [1] was “liver, hepatocellular carcinoma, cancer, thyroid; gland, nodular hyperplasia”. Further, in data set [2], the “Number of positive AMLs” value worked out at 1.

On to “486 (SDSNEFSVIADPRGNTLG; listed as Homo sapiens) [compound 486]”, for which the “Proliferative disease and location thereof” value in data set [1] is recorded as “liver, hepatocellular carcinoma, cancer, thyroid; gland, nodular hyperplasia”. The “Number of positive AMLs” value in data set [2] is on record as 1.

Regarding “487 (SQKKTFEINPRHPLIR; listed as Homo sapiens) [compound 487]”, the “Proliferative disease and location thereof” value in data set [1] is “liver, hepatocellular carcinoma, cancer, thyroid; gland, nodular hyperplasia”. In data set [2], the “Number of positive AMLs” value worked out at 1.

Consider “490 (PEFDGKRFQNVAKE; listed as Homo sapiens) [compound 490]”, for which the “Proliferative disease and location thereof” value in data set [1] is given as “liver, hepatocellular carcinoma, cancer, thyroid; gland, nodular hyperplasia”. In data set [2], the “Number of positive AMLs” value worked out at 1.

In the case of “491 (LNSLTYQVLDVQRYP; listed as Homo sapiens) [compound 491]”, the “Proliferative disease and location thereof” value in data set [1] is on record as “kidney, clear cell renal cell carcinoma, endometrium, adenocarcinoma”. Further, the “Number of positive AMLs” value in data set [2] came to 1.

Regarding “492 (LPQLVGVSTPLQG; listed as Homo sapiens) [compound 492]”, the “Proliferative disease and location thereof” value in data set [1] is “kidney, clear cell renal cell carcinoma, endometrium, adenocarcinoma”. Also, in data set [2], the “Number of positive AMLs” value stood at 2.

In the case of “493 (LPQLVGVSTPLQGG; listed as Homo sapiens) [compound 493]”, the “Proliferative disease and location thereof” value in data set [1] is on record as “kidney, clear cell renal cell carcinoma, endometrium, adenocarcinoma”. For the same substance, the “Number of positive AMLs” value in data set [2] was determined as 1.

“494 (LPQLVGVSTPLQGGS; listed as Homo sapiens) [compound 494]”: in data set [1], the “Proliferative disease and location thereof” value is given as “kidney, clear cell renal cell carcinoma, endometrium, adenocarcinoma”. Besides, the “Number of positive AMLs” value in data set [2] is 3.

For “495 (RLPQLVGVSTPLQGGS; listed as Homo sapiens) [compound 495]”, the “Proliferative disease and location thereof” value in data set [1] is given as “kidney, clear cell renal cell carcinoma, endometrium, adenocarcinoma”. Also, the “Number of positive AMLs” value in data set [2] is listed as 1.

For “496 (SDVDLIPMNDHNAYR; listed as Homo sapiens) [compound 496]”, in data set [1], the “Proliferative disease and location thereof” value is “kidney, clear cell renal cell carcinoma, endometrium, adenocarcinoma”. Besides, in data set [2], the “Number of positive AMLs” value amounted to 1.

On to “497 (GRRKSRQGSLAMEELK; listed as Homo sapiens) [compound 497]”, for which the “Proliferative disease and location thereof” value in data set [1] is reported as “rectum, adenocarcinoma”. Besides, the “Number of positive AMLs” value in data set [2] stood at 1.

Turning to “498 (RKSRQGSLAMEELK; listed as Homo sapiens) [compound 498]”, the “Proliferative disease and location thereof” value in data set [1] is on record as “rectum, adenocarcinoma”. The “Number of positive AMLs” value in data set [2] is on record as 3.

Take “499 (SGPSLKGEEEPLVASEDGAVD; listed as Homo sapiens) [compound 499]”: in data set [1], the “Proliferative disease and location thereof” value is given as “rectum, adenocarcinoma”. The “Number of positive AMLs” value in data set [2] was determined as 1.

For “500 (SGSGPSLKGEEEPLVASEDGAVD; listed as Homo sapiens) [compound 500]”, the “Proliferative disease and location thereof” value in data set [1] was “rectum, adenocarcinoma”. Also, in data set [2], the “Number of positive AMLs” value came out at 1.

Turning to “501 (IKPGVTTEEIDHAVH; listed as Homo sapiens) [compound 501]”, in data set [1], the “Proliferative disease and location thereof” value was “endometrium, adenocarcinoma”. In addition, the “Number of positive AMLs” value in data set [2] was 4.

In the case of “502 (KPGVTTEEIDHAVH; listed as Homo sapiens) [compound 502]”, the “Proliferative disease and location thereof” value in data set [1] is “endometrium, adenocarcinoma”. Also, in data set [2], the “Number of positive AMLs” value was determined as 3.

“503 (DGVLRIQNLDQS; listed as Homo sapiens) [compound 503]”: in data set [1], the “Proliferative disease and location thereof” value is on record as “pancreas, adenocarcinoma, myometrium, leiomyoma”. Further, in data set [2], the “Number of positive AMLs” value is 4.

For “504 (GAYFHDDGFLAFPG; listed as Homo sapiens) [compound 504]”, in data set [1], the “Proliferative disease and location thereof” value was “pancreas, adenocarcinoma, myometrium, leiomyoma”. The “Number of positive AMLs” value in data set [2] was 1.

As for “505 (TPYSFLPLPTIKDAYR; listed as Homo sapiens) [compound 505]”, in data set [1], the “Proliferative disease and location thereof” value was “pancreas, adenocarcinoma, myometrium, leiomyoma”. In data set [2], the “Number of positive AMLs” value is 1.

On to “506 (YPTPDISWSKLDGSLPP; listed as Homo sapiens) [compound 506]”, for which the “Proliferative disease and location thereof” value in data set [1] was “pancreas, adenocarcinoma, myometrium, leiomyoma”. In addition, the “Number of positive AMLs” value in data set [2] is recorded as 1.

As for “507 (YPTPDISWSKLDGSLPPD; listed as Homo sapiens) [compound 507]”, the “Proliferative disease and location thereof” value in data set [1] is listed as “pancreas, adenocarcinoma, myometrium, leiomyoma”. Besides, in data set [2], the “Number of positive AMLs” value is 1.

Turning to “508 (ASHFEQMAAASMHR; listed as Homo sapiens) [compound 508]”, in data set [1], the “Proliferative disease and location thereof” value is on record as “metastatic renal cell carcinoma”. The “Number of positive AMLs” value in data set [2] is 3.

Regarding “509 (GGQVIVAIPKLQTQQ; listed as Homo sapiens) [compound 509]”, in data set [1], the “Proliferative disease and location thereof” value was “parathyroid gland, adenoma”. Further, in data set [2], the “Number of positive AMLs” value was determined as 1.

As for “510 (GQVIVAIPKLQTQ; listed as Homo sapiens) [compound 510]”, the “Proliferative disease and location thereof” value in data set [1] is “parathyroid gland, adenoma”. The “Number of positive AMLs” value in data set [2] is 1.

Turning to “511 (GQVIVAIPKLQTQQ; listed as Homo sapiens) [compound 511]”, the “Proliferative disease and location thereof” value in data set [1] is recorded as “parathyroid gland, adenoma”. In addition, the “Number of positive AMLs” value in data set [2] turned out to be 1.

For the substance “512 (IESTFDVVSSKPVG; listed as Homo sapiens) [compound 512]”, the “Proliferative disease and location thereof” value in data set [1] is on record as “parathyroid gland, adenoma”. The “Number of positive AMLs” value in data set [2] is recorded as 2.

On to “513 (DWGALATISTLEAVRG; listed as Homo sapiens) [compound 513]”, for which the “Proliferative disease and location thereof” value in data set [1] is on record as “lung, non-small cell lung carcinoma, liver, hepatocellular carcinoma”. Also, in data set [2], the “Number of positive AMLs” value is recorded as 1.

On to “514 (GRPFADVLSLSDGPPG; listed as Homo sapiens) [compound 514]”, for which the “Proliferative disease and location thereof” value in data set [1] is recorded as “lung, non-small cell lung carcinoma, liver, hepatocellular carcinoma”. Also, in data set [2], the “Number of positive AMLs” value amounted to 1.

Regarding “515 (WGALATISTLEAVR; listed as Homo sapiens) [compound 515]”, the “Proliferative disease and location thereof” value in data set [1] is given as “lung, non-small cell lung carcinoma, liver, hepatocellular carcinoma”. Moreover, the “Number of positive AMLs” value in data set [2] was found to be 2.

For the substance “516 (WGALATISTLEAVRG; listed as Homo sapiens) [compound 516]”, the “Proliferative disease and location thereof” value in data set [1] was “lung, non-small cell lung carcinoma, liver, hepatocellular carcinoma”. In addition, in data set [2], the “Number of positive AMLs” value is recorded as 2.

As for “517 (ADELALVDVIEDK; listed as Homo sapiens) [compound 517]”, in data set [1], the “Proliferative disease and location thereof” value is “kidney, clear cell renal cell carcinoma, kidney, renal cell carcinoma”. Moreover, the “Number of positive AMLs” value in data set [2] amounted to 1.

Regarding “518 (GVSLKTLHPDLGTDK; listed as Homo sapiens) [compound 518]”, in data set [1], the “Proliferative disease and location thereof” value was “kidney, clear cell renal cell carcinoma, kidney, renal cell carcinoma”. Further, in data set [2], the “Number of positive AMLs” value is recorded as 2.

Take “519 (IVSGKDYNVTANSKL; listed as Homo sapiens) [compound 519]”: the “Proliferative disease and location thereof” value in data set [1] was “kidney, clear cell renal cell carcinoma, kidney, renal cell carcinoma”. The “Number of positive AMLs” value in data set [2] was found to be 1.

As for “520 (DDNIKTYSDHPEK; listed as Homo sapiens) [compound 520]”, the “Proliferative disease and location thereof” value in data set [1] was “kidney, clear cell renal cell carcinoma, liver, hepatocellular carcinoma”. Further, the “Number of positive AMLs” value in data set [2] stood at 1.

Turning to “521 (DKVYVHLKNLASRPY; listed as Homo sapiens) [compound 521]”, the “Proliferative disease and location thereof” value in data set [1] is listed as “kidney, clear cell renal cell carcinoma, liver, hepatocellular carcinoma”. Moreover, the “Number of positive AMLs” value in data set [2] came out at 1.

Values taken from US10525115B2 (Immatics Biotechnologies GmbH, priority 2014, dated 2020).
